Data as given in PubChem BioAssay AID1671190 (National Center for Advancing Translational Sciences (NCATS), 2021).
Hit rate of the full screen: of about 580,000 compounds, about 6,100 (1.1%) were called active. Inconclusive results, whose numbers are uncertain, are shown with a selection of clear calls. Calls follow the shape of the dose curve; as a rule, active = well fitted inhibition curve with a large enough effect; inconclusive = small, poorly fitted or top-dose-only effect, or another doubt; inactive = no such curve, though single readings can be large or run the other way. A potency beside an inconclusive call is a rough fit, not a confirmed value.

The chains behind the UniProt entries cited, without tags or fusion partners. Where a name states a change or a piece, a line headed by the entry shows the natural chain unless it says otherwise.
UniProt P18054: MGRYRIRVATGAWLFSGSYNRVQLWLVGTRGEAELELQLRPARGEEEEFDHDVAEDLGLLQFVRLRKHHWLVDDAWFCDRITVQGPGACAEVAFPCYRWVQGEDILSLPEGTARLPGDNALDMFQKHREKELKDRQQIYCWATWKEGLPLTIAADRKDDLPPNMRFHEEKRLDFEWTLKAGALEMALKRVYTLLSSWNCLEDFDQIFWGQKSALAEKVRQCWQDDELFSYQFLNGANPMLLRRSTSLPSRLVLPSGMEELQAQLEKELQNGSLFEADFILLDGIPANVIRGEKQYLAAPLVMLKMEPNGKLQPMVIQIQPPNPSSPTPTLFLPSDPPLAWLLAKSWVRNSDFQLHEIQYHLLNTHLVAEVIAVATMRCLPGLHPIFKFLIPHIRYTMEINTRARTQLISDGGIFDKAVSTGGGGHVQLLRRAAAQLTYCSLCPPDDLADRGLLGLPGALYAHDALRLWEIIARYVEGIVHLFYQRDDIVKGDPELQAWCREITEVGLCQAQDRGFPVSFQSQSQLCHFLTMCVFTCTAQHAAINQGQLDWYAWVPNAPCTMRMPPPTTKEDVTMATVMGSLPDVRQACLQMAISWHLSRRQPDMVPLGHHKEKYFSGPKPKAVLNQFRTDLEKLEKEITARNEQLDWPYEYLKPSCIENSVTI

Target: Polyunsaturated fatty acid lipoxygenase ALOX12 (Homo sapiens) (UniProt P18054)
Test: Primary qHTS assay for inhibitors of human arachidonate 12S-lipoxygenase (ALOX12): Round 2
Conditions: purified 12hLO, xylenol orange hydroperoxide absorbance; activity change, negative = inhibition: at 108 µM (top of the series) unless noted
Method in brief: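 Purified human 12hLO (150 nM final) in 25 mM Hepes, 0.01% Triton X-100, pH 7.0 was preincubated 15 min at room temperature with compound. Then 40 uM arachidonic acid was added, 30 min. Hydroperoxide was read by Fe-XO absorbance ratio 573/405 nm.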
% is scaled to controls: 0 for no effect and ±100 for the full control effect; potency is read from the fitted curve at half-maximal effect.

| SMILES | activity change, negative = inhibition | Potency |
| --- | --- | --- |
| CS(=O)(=O)c1ccccc1-c1nnc(NC(=O)CCS(=O)(=O)c2ccc(Cl)cc2)o1 | inactive: 31.3% | – |
| CCc1ccc(NC(=O)c2sc3nc4c(cc3c2N)CN(C(C)C)CC4)cc1 | – | inconclusive: 5.01 µM [inhibitor, full curve, poor fit] |
| O=C(CO/N=C1\CCCc2nonc21)Nc1ccc(Br)cc1 | – | inconclusive: 6.31 µM [inhibitor, full curve, poor fit] |
| O=C1CC(/C=C/c2ccccn2)=Nc2ccccc2N1 | inactive: -4.74% | – |
| Cc1ccc(SC(C)C(=O)NC2CC2)cc1 (centres undefined) | inactive: 0% | – |
| Cc1ccc2oc(C(=O)Nc3ccc4c(c3)NC(=O)C(C)O4)cc(=O)c2c1 (centres undefined) | – | inconclusive: 39.8 µM [inhibitor, single point] |
| COc1ccc(Cc2c(-c3ccccc3)nc3ccc(C)cn23)c(C)c1 | – | inconclusive: 31.6 µM [inhibitor, partial curve, poor fit] |
| CCOC(=O)c1cnc2ccc(C)cc2c1Nc1ccc(OCc2ccccc2Cl)cc1 | inactive: -28.3% | – |
| Cc1n[nH]c(C)c1C(N)C(=O)N(Cc1cccnc1)Cc1cccnc1 (centres undefined) | – | inconclusive: 11.2 µM [inhibitor, full curve] |
| CCN1CCN(C(=O)Cn2cccc(OC)c2=O)CC1(C)C | – | inconclusive: 7.94 µM [inhibitor, full curve] |
| Cc1c(Cl)c([N+](=O)[O-])nn1CCCC(=O)Nc1sc2c(c1C#N)CCC2 | – | inconclusive: 12.6 µM [inhibitor, full curve] |
| COc1ccccc1N(CC(=O)NCCSCc1ccccc1Cl)S(C)(=O)=O | – | inconclusive: 0.631 µM [inhibitor, full curve, poor fit] |
| Cc1cc(C)c2sc(N(CCN(C)C)C(=O)c3ccc4ccccc4c3)nc2c1 | – | inconclusive: 50.1 µM [inhibitor, partial curve, poor fit] |
| O=C(C1CC1)N1CCN=C1SCc1ccccc1 | inactive: 5.09% | – |
| O=C(c1ccc(F)cc1)N1CC(=O)N2[C@@H](CO)[C@@H](c3ccc(Br)cc3)[C@@H]2C1 | – | inconclusive: 89.1 µM [inhibitor, single point] |
| COC(=O)[C@H](C)NC(=O)NCc1ccc(F)cc1 | inactive: -8.9% | – |
| CSc1ccccc1NC(=O)c1ccncc1 | – | inconclusive: 79.4 µM [inhibitor, partial curve, poor fit] |
| Brc1c(Br)c(Br)c2n[nH]nc2c1Br | inactive: 0% | – |
| COc1ccccc1-n1cnc2cc(NC(C)=O)ccc21 | – | inconclusive: 4.47 µM [inhibitor, full curve, poor fit] |
| CC1=C(C(=O)OCc2ccccc2)C(c2ccc([N+](=O)[O-])cc2)NC(=O)N1CCCCCC(=O)O (centres undefined) | – | inconclusive: 100 µM [inhibitor, single point] |
| C/C(=N/NC(N)=S)c1ccc(Br)s1 | – | active: 25.1 µM |
| Cc1ccc(CNC(=O)c2ccc(-n3c(C)cc4c3CCCC4)cc2)cc1 | – | inconclusive: 39.8 µM [inhibitor, partial curve, poor fit] |

| SMILES | activity change, negative = inhibition | Potency |
| --- | --- | --- |
| O=C(NC1CCN(Cc2ccccc2)CC1)c1ccccc1OCc1ccccc1Cl | – | inconclusive: 112 µM [inhibitor, single point] |
| Cc1cc(C)c(C)c(OCCOCCNCc2ccccc2)c1 | – | inconclusive: 2.24 µM [inhibitor, full curve] |
| CC1CCN(c2oc(-c3cccs3)nc2S(=O)(=O)c2ccc(Cl)cc2)CC1 | inactive: -22.7% | – |
| Cc1noc2c(-c3cccc(O)c3)cc(-c3ccccc3)nc12 | – | inconclusive: 22.4 µM [inhibitor, full curve] |
| Cc1ccccc1NC(=O)c1cccc(N2C(=O)C3CCCCC3C2=O)c1 (centres undefined) | – | inconclusive: 12.6 µM [inhibitor, full curve, poor fit] |
| N=c1sccn1CC(=O)Nc1ccc(S(=O)(=O)N2CCOCC2)cc1 | – | inconclusive: 28.2 µM [inhibitor, partial curve, poor fit] |
| Cc1[nH]c(=S)[nH]c(=O)c1Cc1c(O)ccc2ccccc12 | – | inconclusive: 79.4 µM [inhibitor, partial curve, poor fit] |
| Cc1nc(N)sc1C | – | inconclusive: 39.8 µM [inhibitor, partial curve, poor fit] |
| NCCC(=O)NC1CCCc2c1cnn2-c1ccc(F)cc1F (centres undefined) | – | inconclusive: 31.6 µM [inhibitor, single point] |
| Cc1ccc(Cl)cc1N1CCN(CC(=O)Nc2ccc3[nH]c(=O)[nH]c3c2)CC1 | inactive: 16.5% | – |
| CCOC(=O)C1=NNC(C(=O)c2ccc(C)cc2)C1c1ccc(C)cc1 (centres undefined) | – | inconclusive: 50.1 µM [inhibitor, partial curve, poor fit] |
| Oc1ccccc1N1CCN(c2ncnc3scc(-c4ccccc4)c23)CC1 | inactive: -6.84% | – |
| COc1ccc(N(C(=O)c2snc(C(N)=O)c2N)C(C(=O)NC2CCCCC2)c2ccc(F)cc2)c(OC)c1 (centres undefined) | – | inconclusive: 56.2 µM [inhibitor, partial curve, poor fit] |
| CCCOC(=O)c1ccc(Oc2c(C(F)(F)F)oc3cc(O)ccc3c2=O)cc1 | – | inconclusive: 89.1 µM [inhibitor, single point] |
| O=C(/C=C/c1ccc(-c2ccccc2Cl)o1)c1ccc(Cl)cc1 | – | inconclusive: 1.41 µM [inhibitor, partial curve, poor fit] |
| COc1ccc(C(c2nnnn2CCc2ccccc2)N2CCN(C3CCCC3)CC2)cc1 (centres undefined) | – | inconclusive: 2.82 µM [inhibitor, full curve, poor fit] |
| COc1ccc(C2CC(C(F)(F)F)n3nc(C(=O)O)c(Br)c3N2)cc1 (centres undefined) | – | inconclusive: 44.7 µM [inhibitor, partial curve, poor fit] |
| Oc1ccc(Nc2nc(N3CCCC3)c3ccccc3n2)cc1 | – | inconclusive: 17.8 µM [inhibitor, partial curve, poor fit] |
| COc1ccccc1CN1CCNc2cc(-c3ccnc(C)c3)ncc2C1 | inactive: 49% [at 176 µM] | – |
| Cc1cc(C)c2sc(N(Cc3cccnc3)C(=O)CCS(=O)(=O)c3ccccc3)nc2c1 | – | inconclusive: 141 µM [inhibitor, partial curve, poor fit] |
| CCN(CCCNC(=O)c1cc(-c2cccnc2)nc2ccccc12)c1cccc(C)c1 | – | inconclusive: 0.562 µM [inhibitor, full curve, poor fit] |
| Cc1cccc(CSc2cn(CC(=O)N3CCCCC3)c3ccccc23)c1 | – | inconclusive: 126 µM [inhibitor, single point] |

| SMILES | activity change, negative = inhibition | Potency |
| --- | --- | --- |
| N#CCCn1c(=S)[nH]c2ccccc21 | – | inconclusive: 3.55 µM [inhibitor, full curve, poor fit] |
| O=C(c1ccco1)N1CCN(Cc2nc3cc(Cl)ccc3c(=O)[nH]2)CC1 | – | inconclusive: 100 µM [inhibitor, single point] |
| O=c1cc(O)c2c(=O)[nH]c(=O)n(-c3ccccc3)c2[nH]1 | – | inconclusive: 50.1 µM [inhibitor, partial curve, poor fit] |
| Cc1ccccc1C(=O)NCCn1cccc1-c1nc(-c2ccc3c(c2)OCO3)no1 | – | inconclusive: 39.8 µM [inhibitor, single point] |
| Cc1ccc(-c2nnc([C@H]3CCN(C(=O)COc4ccccc4)C3)o2)cc1 | – | inconclusive: 56.2 µM [inhibitor, full curve] |
| CCN1C(=O)[C@@H]2[C@@H](c3ccc(SC4CCCCC4)c(OC)c3)N3CCC[C@@]3(C(=O)OC)[C@@H]2C1=O | – | inconclusive: 44.7 µM [inhibitor, partial curve, poor fit] |
| NC(c1ccccc1)c1csc(NC(=O)Nc2cccc(C(F)(F)F)c2)n1 (centres undefined) | – | inconclusive: 89.1 µM [inhibitor, partial curve, poor fit] |
| Cc1csc(NC(=O)CSc2nc3[nH]c(=O)cc(O)c3s2)n1 | inactive: 24.2% | – |
| Fc1ccccc1/C=C/c1ccc2ccccc2n1 | inactive: 10.2% | – |
| Cc1ccc2c(c1)-c1c(ssc1=S)C(C)(C)N2C(=O)CSc1nncn1C | – | inconclusive: 70.8 µM [inhibitor, partial curve, poor fit] |
| Cc1ccc(-n2nc(-c3cccnc3)cc2C(=O)N2CCOCC2)c(C)c1 | – | inconclusive: 56.2 µM [inhibitor, partial curve, poor fit] |
| Cc1cccc(-c2noc([C@@H]3Cc4nc[nH]c4CN3C(=O)NC(C)C)n2)c1 | – | inconclusive: 20 µM [inhibitor, full curve] |
| COc1cccc(OC)c1-c1cc(C(=O)NC2(C(=O)O)C3CC4CC(C3)CC2C4)nn1-c1ccnc2cc(Cl)ccc12 (centres undefined) | – | inconclusive: 8.63 µM [inhibitor, full curve, poor fit] |
| Cc1cnc(CC2CCNC2)n1CC1CC1 (centres undefined) | – | inconclusive: 7.94 µM [inhibitor, full curve] |
| COc1ccc(CCCc2n[nH]c(=S)o2)cc1C | – | inconclusive: 17.8 µM [inhibitor, partial curve] |
| C=CCOc1cccn2c(N(C=O)Cc3ccc(OC)cc3)c(CC)nc12 | – | inconclusive: 39.8 µM [inhibitor, partial curve, poor fit] |
| COc1ccc(S(=O)(=O)N(CC(=O)NC2CCCCCC2)c2ccc(C)cc2)cc1OC | – | inconclusive: 126 µM [inhibitor, partial curve, poor fit] |
| CC1CC1C(=O)OCC(=O)Nc1ncc(Cl)cc1Cl (centres undefined) | – | inconclusive: 79.4 µM [inhibitor, partial curve, poor fit] |
| CCCCN1CNC(=S)N(Cc2ccccc2)C1 | – | inconclusive: 56.2 µM [inhibitor, partial curve, poor fit] |
| Fc1ccc(/C=N/Nc2ccccc2Cl)cc1F | – | inconclusive: 22.4 µM [inhibitor, partial curve, poor fit] |

13 entries from above, with bars between the fields.
SMILES | activity change, negative = inhibition | Potency
Cc1ccccc1C(=O)NCCn1cccc1-c1nc(-c2ccc3c(c2)OCO3)no1 | – | inconclusive: 39.8 µM [inhibitor, single point]
Cc1ccc(-c2nnc([C@H]3CCN(C(=O)COc4ccccc4)C3)o2)cc1 | – | inconclusive: 56.2 µM [inhibitor, full curve]
CCN1C(=O)[C@@H]2[C@@H](c3ccc(SC4CCCCC4)c(OC)c3)N3CCC[C@@]3(C(=O)OC)[C@@H]2C1=O | – | inconclusive: 44.7 µM [inhibitor, partial curve, poor fit]
NC(c1ccccc1)c1csc(NC(=O)Nc2cccc(C(F)(F)F)c2)n1 (centres undefined) | – | inconclusive: 89.1 µM [inhibitor, partial curve, poor fit]
Cc1csc(NC(=O)CSc2nc3[nH]c(=O)cc(O)c3s2)n1 | inactive: 24.2% | –
Fc1ccccc1/C=C/c1ccc2ccccc2n1 | inactive: 10.2% | –
Cc1ccc2c(c1)-c1c(ssc1=S)C(C)(C)N2C(=O)CSc1nncn1C | – | inconclusive: 70.8 µM [inhibitor, partial curve, poor fit]
Cc1ccc(-n2nc(-c3cccnc3)cc2C(=O)N2CCOCC2)c(C)c1 | – | inconclusive: 56.2 µM [inhibitor, partial curve, poor fit]
Cc1cccc(-c2noc([C@@H]3Cc4nc[nH]c4CN3C(=O)NC(C)C)n2)c1 | – | inconclusive: 20 µM [inhibitor, full curve]
COc1cccc(OC)c1-c1cc(C(=O)NC2(C(=O)O)C3CC4CC(C3)CC2C4)nn1-c1ccnc2cc(Cl)ccc12 (centres undefined) | – | inconclusive: 8.63 µM [inhibitor, full curve, poor fit]
Cc1cnc(CC2CCNC2)n1CC1CC1 (centres undefined) | – | inconclusive: 7.94 µM [inhibitor, full curve]
COc1ccc(CCCc2n[nH]c(=S)o2)cc1C | – | inconclusive: 17.8 µM [inhibitor, partial curve]
C=CCOc1cccn2c(N(C=O)Cc3ccc(OC)cc3)c(CC)nc12 | – | inconclusive: 39.8 µM [inhibitor, partial curve, poor fit]
